# Some of the results follow.
# B1: CBP21 (Serratia marcescens), O83009 (protein)
# chain: MNKTSRTLLSLGLLSAAMFGVSQQANAHGYVESPASRAYQCKLQLNTQCGSVQYEPQSVEGLKGFPQAGPADGHIASADKSTFFELDQQTPTRWNKLNLKTGPNSFTWKLTARHSTTSWRYFITKPNWDASQPLTRASFDLTPFCQFNDGGAIPAAQVTHQCNIPADRSGSHVILAVWDIADTANAFYQAIDVNLSK
# What was measured:
# Experiment in all cases: glycan array binding signal (z-score within array); higher = stronger binding
# Details in all cases: glycan notation: IUPAC condensed, linker removed
# [1] = biological target: Neu5Ac(a2-6)Gal(b1-4)GlcNAc(b1-2)Man(a1-3)[GlcNAc(b1-4)][Neu5Ac(a2-6)Gal(b1-4)GlcNAc(b1-2)Man(a1-6)]Man(b1-4)GlcNAc(b1-4)GlcNAc
# Summary of the method: (§1)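 Glycan array data came from 3228 arrays in the Consortium for Functional Glycomics database, and only arrays with an available protein sequence were kept. Glycan names were put into IUPAC-condensed notation, and columns mapping to the same glycan were averaged. The binding signal is a within-array Z-score, averaged across arrays of one protein sequence run at different concentrations or buffers and across linkers. A negative Z-score can be read as non-binding.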
# [2] = biological target: Neu5Ac(a2-6)Gal(b1-4)GlcNAc(b1-2)Man(a1-3)[Man(a1-6)]Man(b1-4)GlcNAc(b1-4)GlcNAc
# Summary of the method: as §1
# [3] = biological target: Neu5Ac(a2-6)Gal(b1-4)GlcNAc(b1-2)Man(a1-3)[Neu5Ac(a2-3)Gal(b1-4)GlcNAc(b1-2)Man(a1-6)]Man(b1-4)GlcNAc(b1-4)GlcNAc
# Summary of the method: as §1
# [4] = biological target: Neu5Ac(a2-6)Gal(b1-4)GlcNAc(b1-2)Man(a1-3)[Neu5Ac(a2-6)Gal(b1-4)GlcNAc(b1-2)Man(a1-6)]Man(b1-4)GlcNAc(b1-4)GlcNAc
# Summary of the method: as §1
# [5] = biological target: Neu5Ac(a2-6)Gal(b1-4)GlcNAc(b1-2)Man(a1-3)[Neu5Ac(a2-6)Gal(b1-4)GlcNAc(b1-2)Man(a1-6)]Man(b1-4)GlcNAc(b1-4)[Fuc(a1-6)]GlcNAc
# Summary of the method: as §1
# [6] = biological target: Neu5Ac(a2-6)Gal(b1-4)GlcNAc(b1-2)Man(a1-6)Man(b1-4)GlcNAc(b1-4)GlcNAc
# Summary of the method: as §1
# [7] = biological target: Neu5Ac(a2-6)Gal(b1-4)GlcNAc(b1-2)Man(a1-6)[Gal(b1-4)GlcNAc(b1-2)Man(a1-3)]Man(b1-4)GlcNAc(b1-4)GlcNAc
# Summary of the method: as §1
# [8] = biological target: Neu5Ac(a2-6)Gal(b1-4)GlcNAc(b1-2)Man(a1-6)[GlcNAc(b1-2)Man(a1-3)]Man(b1-4)GlcNAc(b1-4)GlcNAc
# Summary of the method: as §1
# [9] = biological target: Neu5Ac(a2-6)Gal(b1-4)GlcNAc(b1-2)Man(a1-6)[Man(a1-3)]Man(b1-4)GlcNAc(b1-4)GlcNAc
# Summary of the method: as §1
# [10] = biological target: Neu5Ac(a2-6)Gal(b1-4)GlcNAc(b1-2)[Neu5Ac(a2-6)Gal(b1-4)GlcNAc(b1-4)]Man(a1-3)[GlcNAc(b1-4)][Neu5Ac(a2-6)Gal(b1-4)GlcNAc(b1-2)[Neu5Ac(a2-6)Gal(b1-4)GlcNAc(b1-6)]Man(a1-6)]Man(b1-4)GlcNAc(b1-4)GlcNAc
# Summary of the method: as §1
# [11] = biological target: Neu5Ac(a2-6)Gal(b1-4)GlcNAc(b1-2)[Neu5Ac(a2-6)Gal(b1-4)GlcNAc(b1-4)]Man(a1-3)[GlcNAc(b1-4)][Neu5Ac(a2-6)Gal(b1-4)GlcNAc(b1-4)Man(a1-6)]Man(b1-4)GlcNAc(b1-4)GlcNAc
# Summary of the method: as §1
# [12] = biological target: Neu5Ac(a2-6)Gal(b1-4)GlcNAc(b1-2)[Neu5Ac(a2-6)Gal(b1-4)GlcNAc(b1-6)]Man(a1-6)[Neu5Ac(a2-6)Gal(b1-4)GlcNAc(b1-2)Man(a1-3)][GlcNAc(b1-4)]Man(b1-4)GlcNAc(b1-4)GlcNAc
# Summary of the method: as §1
# [13] = biological target: Neu5Ac(a2-6)Gal(b1-4)GlcNAc(b1-3)Gal(b1-3)GlcNAc
# Summary of the method: as §1
# [14] = biological target: Neu5Ac(a2-6)Gal(b1-4)GlcNAc(b1-3)Gal(b1-4)GlcNAc
# Summary of the method: as §1
# [15] = biological target: Neu5Ac(a2-6)Gal(b1-4)GlcNAc(b1-3)Gal(b1-4)GlcNAc(b1-2)Man(a1-3)[Neu5Ac(a2-6)Gal(b1-4)GlcNAc(b1-3)Gal(b1-4)GlcNAc(b1-2)Man(a1-6)]GalNAc
# Summary of the method: as §1
# [16] = biological target: Neu5Ac(a2-6)Gal(b1-4)GlcNAc(b1-3)Gal(b1-4)GlcNAc(b1-3)Gal(b1-4)GlcNAc
# Summary of the method: as §1
# [17] = biological target: Neu5Ac(a2-6)Gal(b1-4)GlcNAc(b1-3)Gal(b1-4)GlcNAc(b1-3)Gal(b1-4)GlcNAc(b1-2)Man(a1-3)[Neu5Ac(a2-6)Gal(b1-4)GlcNAc(b1-3)Gal(b1-4)GlcNAc(b1-3)Gal(b1-4)GlcNAc(b1-2)Man(a1-6)]GalNAc
# Summary of the method: as §1
# [18] = biological target: Neu5Ac(a2-6)Gal(b1-4)GlcNAc(b1-3)Gal(b1-4)GlcNAc(b1-3)GalNAc
# Summary of the method: as §1
# [19] = biological target: Neu5Ac(a2-6)Gal(b1-4)GlcNAc(b1-3)Gal(b1-4)GlcNAc(b1-3)[Neu5Ac(a2-6)Gal(b1-4)GlcNAc(b1-3)Gal(b1-4)GlcNAc(b1-6)]GalNAc
# Summary of the method: as §1
# [20] = biological target: Neu5Ac(a2-6)Gal(b1-4)GlcNAc(b1-3)Gal(b1-4)GlcNAc(b1-6)[Gal(b1-3)]GalNAc
# Summary of the method: as §1
# [21] = biological target: Neu5Ac(a2-6)Gal(b1-4)GlcNAc(b1-3)Gal(b1-4)[Fuc(a1-3)]GlcNAc(b1-3)Gal(b1-4)[Fuc(a1-3)]GlcNAc
# Summary of the method: as §1
# [22] = biological target: Neu5Ac(a2-6)Gal(b1-4)GlcNAc(b1-3)GalNAc
# Summary of the method: as §1
# [23] = biological target: Neu5Ac(a2-6)Gal(b1-4)GlcNAc(b1-3)[Neu5Ac(a2-6)Gal(b1-4)GlcNAc(b1-6)]GalNAc
# Summary of the method: as §1
# [24] = biological target: Neu5Ac(a2-6)Gal(b1-4)GlcNAc(b1-6)GalNAc
# Summary of the method: as §1
# [25] = biological target: Neu5Ac(a2-6)Gal(b1-4)GlcNAc(b1-6)[Gal(b1-3)GlcNAc(b1-3)]Gal(b1-4)Glc
# Summary of the method: as §1
# [26] = biological target: Neu5Ac(a2-6)Gal(b1-4)GlcNAc(b1-6)[Gal(b1-3)]GalNAc
# Summary of the method: as §1
# [27] = biological target: Neu5Ac(a2-6)Gal(b1-4)GlcNAc6S
# Summary of the method: as §1
# Neu5Ac(a2-6)GalNAc = biological target: Neu5Ac(a2-6)GalNAc
# Summary of the method: as §1
# [28] = biological target: Neu5Ac(a2-6)GalNAc(b1-4)GlcNAc
# Summary of the method: as §1
# [29] = biological target: Neu5Ac(a2-6)GalNAc(b1-4)GlcNAc6S
# Summary of the method: as §1
# [30] = biological target: Neu5Ac(a2-6)GlcNAc(b1-4)GlcNAc
# Summary of the method: as §1
binder,measurement,setting,value
B1,glycan array binding signal (z-score),[1],-1.14
same,glycan array binding signal (z-score),[2],0.511
same,glycan array binding signal (z-score),[3],0.611
same,glycan array binding signal (z-score),[4],0.589
same,glycan array binding signal (z-score),[5],0.745
same,glycan array binding signal (z-score),[6],-0.844
same,glycan array binding signal (z-score),[7],-1.16
same,glycan array binding signal (z-score),[8],0.524
same,glycan array binding signal (z-score),[9],-0.695
same,glycan array binding signal (z-score),[10],0.048
same,glycan array binding signal (z-score),[11],0.512
same,glycan array binding signal (z-score),[12],0.063
same,glycan array binding signal (z-score),[13],0.529
same,glycan array binding signal (z-score),[14],-1.01
same,glycan array binding signal (z-score),[15],2.96
same,glycan array binding signal (z-score),[16],-0.719
same,glycan array binding signal (z-score),[17],2.48
same,glycan array binding signal (z-score),[18],-0.005
same,glycan array binding signal (z-score),[19],-0.966
same,glycan array binding signal (z-score),[20],-0.292
same,glycan array binding signal (z-score),[21],0.632
same,glycan array binding signal (z-score),[22],0.08
same,glycan array binding signal (z-score),[23],0.171
same,glycan array binding signal (z-score),[24],1.77
same,glycan array binding signal (z-score),[25],-0.085
same,glycan array binding signal (z-score),[26],-0.063
same,glycan array binding signal (z-score),[27],0.542
same,glycan array binding signal (z-score),Neu5Ac(a2-6)GalNAc,-0.252
same,glycan array binding signal (z-score),[28],-0.222
same,glycan array binding signal (z-score),[29],0.087
same,glycan array binding signal (z-score),[30],-0.211

# An excerpt of these results, with tabs.
binder	measurement	setting	value
B1	glycan array binding signal (z-score)	[10]	0.048
same	glycan array binding signal (z-score)	[11]	0.512
